Reference: PubChem BioAssay (NCATS)
Inconclusive means that the source gave no clear call. Such entries were picked first, then a sample of the others. Potencies beside an inconclusive call are fits to weak or partial responses and may not hold up. The source made the active and inactive calls. Calls come from the whole dose curve; as a rule, active = well fitted curve in the direction sought with a large enough effect; inconclusive = small, poorly fitted or top-dose-only effect, or another doubt; inactive = no such curve, though single readings can be large; an effect the other way counts as inactive or inconclusive.

Test: Quantitative High-Throughput drug screen in 47 multiple myeloma cell lines against the NCATS MIPE library collection: NCIH929_DSMZ cell viability assay (AID 1918978)
Settings: NCI-H929 myeloma viability, CellTiter-Glo ATP, 48 h; series mostly up to 45.8 µM
In short: (§1)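 Viability after 48 h drug exposure was measured as ATP-dependent luminescence. Cells, 500 per well, sat at 37 °C under 5% CO2; DMSO wells set 100%, media-only wells 0%.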
Note: nearly all actives have a fitted effect of over 35% in size.
Potency is the fitted concentration of half-maximal effect.

**Q.** With `O=c1c(-c2ccc(O)cc2)coc2cc(O)ccc12` as the molecule, how does the Potency read?
**A.** inactive

**Q.** Which Potency does the source give for `Nc1nc(F)nc2c1ncn2[C@@H]1O[C@H](COP(=O)(O)O)[C@@H](O)[C@H]1O` here?
**A.** inconclusive: 23.5 µM [cytotoxic, single point]

**Q.** For `CC[C@@H](C)[C@H](NC(=O)[C@H](CC1CCCCC1)NC(=O)c1ccno1)C(=O)N1CCC2(CCc3ccccc32)CC1`, which Potency is on record?
**A.** inconclusive: 6.62 µM [cytotoxic, partial curve, poor fit]

**Q.** With `CC(=O)Oc1cc2c(s1)CCN(C(C(=O)C1CC1)c1ccccc1F)C2` (centres undefined) as the molecule, how does the Potency read?
**A.** inconclusive: 3.72 µM [cytotoxic, full curve]

**Q.** Which Potency does the source give for `O=c1c2ccccc2nc2n1CCc1c-2[nH]c2ccccc12` here?
**A.** inconclusive: 33.2 µM [cytotoxic, single point]

**Q.** Which Potency does the source give for `COc1ccc(CC2=NN3C([C@@H](CCc4ccccc4)[C@@H](C)O)=NC(C)C3C(=O)N2)cc1OC` (some centres undefined) here?
**A.** inactive

**Q.** For `CCOc1ccc(Cc2cc([C@@H]3O[C@H](CO)[C@@H](O)[C@H](O)[C@@H]3O)ccc2Cl)cc1`, which Potency is on record?
**A.** inactive

**Q.** Which Potency does the source give for `CN1CCN(C2=Nc3cc(Cl)ccc3Nc3ccccc32)CC1` here?
**A.** inconclusive: 20.9 µM [cytotoxic, partial curve]

**Q.** For `CCOC1OC(=O)C[C@H]1NC(=O)[C@@H]1CCCN1C(=O)[C@@H](NC(=O)c1ccc(N)c(Cl)c1)C(C)(C)C` (some centres undefined), which Potency is on record?
**A.** inactive

**Q.** For `CO[C@H]1O[C@@H]2O[C@@]3(C)CC[C@@H]4[C@@H](C)CC[C@@H]([C@H]1C)[C@@]24OO3`, which Potency is on record?
**A.** active: 0.833 µM

**Q.** Which Potency does the source give for `Cc1c(OCC(F)(F)F)ccnc1CS(=O)c1nc2ccccc2[nH]1` (centres undefined) here?
**A.** inconclusive: 26.4 µM [cytotoxic, single point]

**Q.** For `CCCn1c(=O)c2[nH]c(C34CC5CC3C[C@@H](C5)C4)nc2n(CCC)c1=O`, which Potency is on record?
**A.** inactive

**Q.** With `C[C@H](NC(=O)[C@@H](O)c1cc(F)cc(F)c1)C(=O)N[C@@H]1C(=O)N(C)c2ccccc2-c2ccccc21` as the molecule, how does the Potency read?
**A.** inconclusive: 13.2 µM [cytotoxic, partial curve, poor fit]

**Q.** With `Cc1ccc(NC(=O)c2ccc(CN3CCN(C)CC3)cc2)cc1Nc1nccc(-c2cccnc2)n1` as the molecule, how does the Potency read?
**A.** inconclusive: 37.2 µM [cytotoxic, single point]

**Q.** Which Potency does the source give for `Clc1ccc2nsnc2c1NC1=NCCN1` here?
**A.** inactive

Test: Quantitative High-Throughput drug screen in 47 multiple myeloma cell lines against the NCATS MIPE library collection: OCIMY1_PLB cell viability assay (AID 1918979)
Settings: OCI-MY1 myeloma viability, CellTiter-Glo ATP, 48 h; series mostly up to 45.8 µM
In short: as §1

**Q.** For `CO[C@H]1C(=O)[C@]2(C)[C@@H](OC)C[C@H]3OC[C@@]3(OC(C)=O)[C@H]2[C@H](OC(=O)c2ccccc2)[C@]2(O)C[C@H](OC(=O)[C@H](O)[C@@H](NC(=O)OC(C)(C)C)c3ccccc3)C(C)=C1C2(C)C`, which Potency is on record?
**A.** inconclusive: 0.743 µM [rising, partial curve, poor fit]

**Q.** For `O=c1c(-c2ccc(O)cc2)coc2cc(O)ccc12`, which Potency is on record?
**A.** inconclusive: 0.001 µM

**Q.** For `Nc1nc(F)nc2c1ncn2[C@@H]1O[C@H](COP(=O)(O)O)[C@@H](O)[C@H]1O`, which Potency is on record?
**A.** inconclusive: 37.2 µM [cytotoxic, partial curve, poor fit]

**Q.** With `NC1CCC(Nc2nc(Nc3ccc(C(=O)N4CCCCC4)cc3)c3ncn(-c4cccc(F)c4)c3n2)CC1` (centres undefined) as the molecule, how does the Potency read?
**A.** inactive

**Q.** For `O=C(O)c1cccc(-c2noc(-c3ccccc3F)n2)c1`, which Potency is on record?
**A.** inactive

**Q.** For `O=c1c(O)c(-c2ccc(O)c(O)c2)oc2cc(O)cc(O)c12`, which Potency is on record?
**A.** inconclusive: 23.5 µM [cytotoxic, single point]

**Q.** Which Potency does the source give for `Cc1[nH]c(C=C2C(=O)Nc3ccccc32)c(C)c1CCC(=O)O` here?
**A.** inconclusive: 23.5 µM [cytotoxic, single point]

**Q.** For `CC1(C)OC2=C(C(=O)c3ccccc3C2=O)[C@H](NCc2ccccc2)[C@H]1O`, which Potency is on record?
**A.** active: 4.18 µM

**Q.** For `CC[C@@H](C)[C@H](NC(=O)[C@H](CC1CCCCC1)NC(=O)c1ccno1)C(=O)N1CCC2(CCc3ccccc32)CC1`, which Potency is on record?
**A.** active: 16.6 µM

**Q.** Which Potency does the source give for `CS(=O)(=O)CCNCc1ccc(-c2ccc3ncnc(Nc4ccc(OCc5cccc(F)c5)c(Cl)c4)c3c2)o1` here?
**A.** inconclusive: 33.2 µM [cytotoxic, single point]

**Q.** For `CC(=O)Oc1cc2c(s1)CCN(C(C(=O)C1CC1)c1ccccc1F)C2` (centres undefined), which Potency is on record?
**A.** inconclusive: 0.833 µM [cytotoxic, full curve, poor fit]

**Q.** Which Potency does the source give for `O=c1c2ccccc2nc2n1CCc1c-2[nH]c2ccccc12` here?
**A.** inactive

**Q.** For `CCOc1ccc(Cc2cc([C@@H]3O[C@H](CO)[C@@H](O)[C@H](O)[C@@H]3O)ccc2Cl)cc1`, which Potency is on record?
**A.** inactive

**Q.** Which Potency does the source give for `CN1CCN(C2=Nc3cc(Cl)ccc3Nc3ccccc32)CC1` here?
**A.** inactive

**Q.** With `CO[C@H]1O[C@@H]2O[C@@]3(C)CC[C@@H]4[C@@H](C)CC[C@@H]([C@H]1C)[C@@]24OO3` as the molecule, how does the Potency read?
**A.** inactive

**Q.** For `CCCn1c(=O)c2[nH]c(C34CC5CC3C[C@@H](C5)C4)nc2n(CCC)c1=O`, which Potency is on record?
**A.** inactive

**Q.** For `Cc1ccc(NC(=O)c2ccc(CN3CCN(C)CC3)cc2)cc1Nc1nccc(-c2cccnc2)n1`, which Potency is on record?
**A.** inactive

**Q.** Which Potency does the source give for `CCNC(=O)c1noc(-c2cc(C(C)C)c(O)cc2O)c1-c1ccc(CN2CCOCC2)cc1` here?
**A.** inconclusive: 0.0935 µM [cytotoxic, full curve, poor fit]

**Q.** Which Potency does the source give for `CC(C)(O)[C@H]1CC[C@@](C)([C@H]2[C@@H](O)C[C@@]3(C)[C@@H]4C[C@H](O[C@@H]5O[C@H](CO)[C@@H](O)[C@H](O)[C@@H]5O)[C@H]5C(C)(C)[C@@H](O[C@@H]6OC[C@@H](O)[C@H](O)[C@@H]6O)CC[C@@]56C[C@@]46CC[C@]23C)O1` here?
**A.** inactive
